This assay addresses EcaGST A3-3 (Equus caballus, UniProt M9ZT87). Briefly: Inhibition of EcaGST A3-3 activity, GSH conjugation with CDNB. In kind it is biochemical, Equus ferus caballus. Conditions: pH 6.5, read-out: Inhibition (%) of EcaGST A3-3. As for the experimental part: The final solvent concentration in the reaction system was kept at 5% (v/v) as a maximum.
The conjugation of GSH with the electrophilic substrate CDNB was used as a biochemical assay for general activity measurements. Screening of the US Drug library for inhibition was done in triplicates in 96-well plates in a Thermo Scientific Multiskan GO spectrophotometer. The conjugation activity at 30°C was monitored at 340 nm for 1 min in 0.1 M sodium phosphate buffer at pH 6.5 and 10 μM inhibitor concentration in a final volume of 300 μL. Initial concentrations of GSH and CDNB were 1 mM.
Assay conditions for inhibition measurements of enzyme activity with CDNB were the following: EcaGST A3-3 15 nM, initial concentrations of GSH and CDNB 1 mM, inhibitor concentrations varying from 0.029 μM to 15 μM, in 100 mM Na2HPO4/NaH2PO4 at pH 6.5.
The reactions were followed spectrophotometrically for 1 min at 30°C using a Shimadzu UV-2501 PC spectrophotometer (Shimadzu Inc.). All experiments included triplicate measurements in each data point.
The equation for competitive inhibition fitted by non-linear regression was v=Vmax[S]/KM(1+[I]/Ki)+[S] where [S] is the substrate concentrations and [I] is the inhibitor concentration.

Chains of the proteins cited; added tags and fusions are not shown.
UniProt M9ZT87, entry or part of it: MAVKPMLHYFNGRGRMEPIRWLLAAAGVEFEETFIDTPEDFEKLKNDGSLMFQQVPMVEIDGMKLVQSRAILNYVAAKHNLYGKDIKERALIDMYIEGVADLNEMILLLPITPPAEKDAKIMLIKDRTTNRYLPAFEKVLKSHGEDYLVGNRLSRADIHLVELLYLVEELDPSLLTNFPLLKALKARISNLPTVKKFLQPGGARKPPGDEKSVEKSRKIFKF

SMILES strings stand for the structures. Where a name gives a salt, the structure may show the parent alone.

In the case of `Oc1ccc2c3c1O[C@H]1[C@@H](O)CC[C@@]4(O)[C@@H](C2)N(CC2CCC2)CC[C@]314` [Nalbuphine hydrochloride], the inhibition at 10 µM was found to be 35 ± 11%.
